Earlier results as cited in US20210338652A1, “COMPOSITION AND USE FOR THE TREATMENT OF PARKINSON'S DISEASE AND RELATED DISORDERS” (CHASE THERAPEUTICS CORPORATION, priority 2018, published 2021).
Some results were stated once for a whole list of compounds, not compound by compound.

Conditions: in vivo; cited from earlier work

For `CCCN(CCC)CCc1cccc2c1CC(=O)N2` [ropinirole, 4-[2-(Dipropylamino)ethyl]-1,3-dihydro-2H-indol-2-one], the plasma half-life is given as 6 to 8 h.
